Test results from article PMC9236769.
These are yes or no findings as the source states them, for the method shown. Binding seen in cells or lysates may run through a third protein.

Protein sequences, listed by entry. Tags and fused reporters are not part of them. Residues count along the entry.
UniProt Q99497: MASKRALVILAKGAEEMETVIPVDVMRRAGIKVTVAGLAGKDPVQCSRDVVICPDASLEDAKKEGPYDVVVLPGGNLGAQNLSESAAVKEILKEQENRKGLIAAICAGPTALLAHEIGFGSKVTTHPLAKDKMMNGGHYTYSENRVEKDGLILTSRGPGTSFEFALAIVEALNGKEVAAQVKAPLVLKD
UniProt P11362, residues 22-822: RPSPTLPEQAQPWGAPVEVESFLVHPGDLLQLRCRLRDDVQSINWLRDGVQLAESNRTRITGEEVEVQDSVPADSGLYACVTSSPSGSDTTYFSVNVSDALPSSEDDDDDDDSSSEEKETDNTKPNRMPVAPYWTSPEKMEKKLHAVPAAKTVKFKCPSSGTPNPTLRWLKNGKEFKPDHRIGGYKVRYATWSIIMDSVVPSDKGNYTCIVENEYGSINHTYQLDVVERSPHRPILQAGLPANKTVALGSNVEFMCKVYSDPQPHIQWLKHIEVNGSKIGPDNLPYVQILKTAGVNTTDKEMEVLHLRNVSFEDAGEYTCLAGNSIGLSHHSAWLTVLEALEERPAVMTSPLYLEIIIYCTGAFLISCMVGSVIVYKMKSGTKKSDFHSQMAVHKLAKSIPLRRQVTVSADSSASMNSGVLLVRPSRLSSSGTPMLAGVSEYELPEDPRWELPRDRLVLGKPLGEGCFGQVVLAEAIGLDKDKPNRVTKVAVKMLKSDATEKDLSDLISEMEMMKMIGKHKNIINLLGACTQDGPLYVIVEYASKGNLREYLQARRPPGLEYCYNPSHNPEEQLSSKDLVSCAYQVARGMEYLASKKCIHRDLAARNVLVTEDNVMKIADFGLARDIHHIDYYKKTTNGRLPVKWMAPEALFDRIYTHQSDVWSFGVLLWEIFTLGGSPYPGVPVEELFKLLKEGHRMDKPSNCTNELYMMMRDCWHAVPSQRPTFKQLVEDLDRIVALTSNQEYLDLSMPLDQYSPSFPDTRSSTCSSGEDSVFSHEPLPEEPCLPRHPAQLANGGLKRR

Biological target: protein deglycase DJ-1 (human) (UniProt Q99497)
Experiment: co-IP; cells lysed in RIPA lysis buffer; 1.5 mg protein incubated with protein A+G agarose and anti-DJ-1 rabbit pAb overnight at 4°C; bound proteins analysed by western blotting

binding: no binding
Substance: Fibroblast growth factor receptor 1 (from UniProt P11362 22-822)
